Here are results for one compound from patent publication US20110052623A1, “DRIED MICROBIAL CELLS OR MICROORGANISM EXTRACT CONTAINING STABILIZED (SS)-S-ADENOSYL-L-METHIONINE AND METHOD FOR PRODUCTION OF THE DRIED MICROORGANISM CELL OR MICROORGANISM EXTRACT” (KANEKA CORPORATION, priority 2007, published 2011).

This data set is described as follows: Stabilizing agent: dried yeast cells containing SAM with added compound preserved at 25° C. for 7 days. It is filed as physicochemical. The settings on record: compound added at 30% by weight to dried yeast cells. As for the experimental part:
The yeast cells obtained in the Reference Example were suspended in deionized water in one-sixth (⅙) of the amount of the culture solution. Each of the compounds listed in table 3 (30% by weight in terms of dry weight) was separately added to the resultant, followed by freezing at −80° C. and lyophilization. Thus, dried yeast cells containing SAM were obtained.

The structures appear in SMILES notation.

Take `Cl.NCCC[C@H](N)C(=O)O` [L-ornithine hydrochloride]: the SAM residual rate stood at 98.2%.
